Laboratory results from patent US20160084855A1, “Compositions and Methods for Modulation and Detection of Immune and Inflammatory Responses” (UNIVERSITY OF CONNECTICUT, priority 2013, published 2016).

Experiment: Serum Lipid 654 by MRM-mass spectrometry in patients and controls
Design: species or system human
[1] = MS patients N=17, adjusted by 13C internal standard, FIG. 25
[2] = banked serum, Alzheimer's patients N=15, FIG. 26
[3] = banked serum, MS patients N=13, FIG. 26
[4] = control patients (healthy) N=12, adjusted by 13C internal standard, FIG. 25

## CC(C)CCCCCCCCCCCC(=O)OC(CCCCCCCCCCCC(C)C)CC(=O)NCC(=O)N[C@@H](CO)C(=O)O (stereo partly drawn) [Lipid 654]
[1]
  Mean serum ion abundance, Transition 1: 414,891
  Mean serum ion abundance, Transition 2: 66,482
  Mean serum ion abundance, Transition 3: 2,762
[2]
  Mean serum ion abundance, Transition 1: 1,297,909
  Mean serum ion abundance, Transition 2: 295,680
  Mean serum ion abundance, Transition 3: 142,076
[3]
  Mean serum ion abundance, Transition 1: 112,139
  Mean serum ion abundance, Transition 2: 26,333
  Mean serum ion abundance, Transition 3: 13,786
[4]
  Mean serum ion abundance, Transition 1: 3,003,525
  Mean serum ion abundance, Transition 2: 497,055
  Mean serum ion abundance, Transition 3: 211,245
